Assay results: patent US20200102353A1, “HUMAN ENDOGENOUS RETROVIRAL PROTEIN” (priority 2017, published 2020)
At least one structure is not confirmed: it was looked up by name or label, or the drawing left a doubt.

Tested on: HEMO release in the supernatant
Assay: Inhibition of HEMO release (shedding) in supernatant of phCMV-HEMO transfected 293T cells, Western blot
Assay type: cell-based, human
Conditions: 293T cells transfected with phCMV-HEMO, treated 3 days, BATIMASTAT 0.1 to 10 μM, MARIMASTAT 0.1 to 10 μM, GM6001 1 to 50 μM
Protocol: For treatment with metalloprotease inhibitors, 5×10^5 293T cells were seeded in 6-well dishes with 2 mL/well of culture medium. One day after seeding, cells were transiently transfected using 1.5 μg phCMV-HEMO plasmid and 4.5 μL Lipofectamine LTX (THERMOFISHER) per well. One day post-transfection, cells were incubated with culture medium supplemented with the indicated concentrations of metalloprotease inhibitors (CALBIOCHEM): BATIMASTAT (0.1 to 10 μM), MARIMASTAT (0.1 to 10 μM) or GM6001 (1 to 50 μM). Medium with inhibitors was replenished for 2 other days, and supernatants were collected and filtered through 0.45 μm MILLIPORE filters one day later. Cells were harvested the same day for protein analysis.
Samples, cell supernatants or cell lysates were analyzed by SDS/PAGE on gradient precast gels (NuPAGE NOVEX 4-12% Bis-Tris gels, LIFE TECHNOLOGIES), and transfer onto nitrocellulose membranes using a semi-dry transfer system. […] Proteins were detected by using an enhanced chemiluminescence system (ECL, PIERCE).

## CNC(=O)[C@H](Cc1ccccc1)NC(=O)[C@H](CC(C)C)[C@H](CSc1cccs1)C(=O)NO [BATIMASTAT]
  HEMO release in the supernatant: clearly inhibited HEMO release in the supernatant
